No constants are given. Whether binding was seen depends on the method and setting. Some binding calls cover weakened binding; strength is not graded here.
Experiments:
[1] = target: T1, CD39 mutant 1 (human) (UniProt P49961); test: flow cytometry, Hek-293T cells expressing mutant 1
T1 sequence: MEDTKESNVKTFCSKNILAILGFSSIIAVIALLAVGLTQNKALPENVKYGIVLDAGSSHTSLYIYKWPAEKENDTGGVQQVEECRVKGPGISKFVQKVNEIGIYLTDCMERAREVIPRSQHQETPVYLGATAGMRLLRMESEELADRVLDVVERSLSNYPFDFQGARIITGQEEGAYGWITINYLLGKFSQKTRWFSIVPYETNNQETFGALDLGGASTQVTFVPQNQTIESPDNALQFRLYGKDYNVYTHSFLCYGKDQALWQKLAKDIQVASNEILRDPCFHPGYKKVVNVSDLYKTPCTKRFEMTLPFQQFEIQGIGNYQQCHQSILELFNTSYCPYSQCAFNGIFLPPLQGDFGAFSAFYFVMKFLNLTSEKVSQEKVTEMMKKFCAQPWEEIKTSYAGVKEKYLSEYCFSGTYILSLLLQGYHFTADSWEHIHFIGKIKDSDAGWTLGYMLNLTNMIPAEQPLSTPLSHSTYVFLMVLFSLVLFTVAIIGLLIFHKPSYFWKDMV

[2] = target: T2, CD39 mutant 3 (human) (UniProt P49961); test: flow cytometry, Hek-293T cells expressing mutant 3
T2 sequence: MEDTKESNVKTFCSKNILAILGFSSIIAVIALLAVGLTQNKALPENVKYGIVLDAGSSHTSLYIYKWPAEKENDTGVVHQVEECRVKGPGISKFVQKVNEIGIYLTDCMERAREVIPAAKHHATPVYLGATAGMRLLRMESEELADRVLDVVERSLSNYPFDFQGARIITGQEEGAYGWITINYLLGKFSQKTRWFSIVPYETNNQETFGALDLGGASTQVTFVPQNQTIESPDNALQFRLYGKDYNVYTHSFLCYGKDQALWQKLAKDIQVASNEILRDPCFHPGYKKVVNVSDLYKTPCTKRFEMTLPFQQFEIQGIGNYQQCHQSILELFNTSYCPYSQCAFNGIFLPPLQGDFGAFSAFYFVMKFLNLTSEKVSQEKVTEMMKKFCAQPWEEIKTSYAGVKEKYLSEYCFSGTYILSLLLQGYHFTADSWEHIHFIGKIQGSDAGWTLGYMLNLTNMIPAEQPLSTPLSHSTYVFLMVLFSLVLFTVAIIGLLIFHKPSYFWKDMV

[3] = target: T3, CD39 mutant 8 (human) (UniProt P49961); test: flow cytometry, Hek-293T cells expressing mutant 8
T3 sequence: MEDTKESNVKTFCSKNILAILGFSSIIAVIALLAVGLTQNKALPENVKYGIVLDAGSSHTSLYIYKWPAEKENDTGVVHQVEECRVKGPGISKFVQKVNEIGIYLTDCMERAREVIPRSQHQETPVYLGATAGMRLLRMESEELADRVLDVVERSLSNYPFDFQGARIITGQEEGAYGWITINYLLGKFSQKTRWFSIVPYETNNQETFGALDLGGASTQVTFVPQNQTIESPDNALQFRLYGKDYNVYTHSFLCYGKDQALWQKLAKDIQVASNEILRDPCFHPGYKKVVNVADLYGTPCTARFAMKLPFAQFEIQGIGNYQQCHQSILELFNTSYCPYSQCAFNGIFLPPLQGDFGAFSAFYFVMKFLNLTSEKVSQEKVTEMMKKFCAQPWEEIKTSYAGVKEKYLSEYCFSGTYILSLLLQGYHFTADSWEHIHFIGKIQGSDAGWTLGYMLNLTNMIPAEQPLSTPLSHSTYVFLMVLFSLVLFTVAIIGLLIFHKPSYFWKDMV

[4] = target: T4, CD39 mutant 12 (human) (UniProt P49961); test: flow cytometry, Hek-293T cells expressing mutant 12
T4 sequence: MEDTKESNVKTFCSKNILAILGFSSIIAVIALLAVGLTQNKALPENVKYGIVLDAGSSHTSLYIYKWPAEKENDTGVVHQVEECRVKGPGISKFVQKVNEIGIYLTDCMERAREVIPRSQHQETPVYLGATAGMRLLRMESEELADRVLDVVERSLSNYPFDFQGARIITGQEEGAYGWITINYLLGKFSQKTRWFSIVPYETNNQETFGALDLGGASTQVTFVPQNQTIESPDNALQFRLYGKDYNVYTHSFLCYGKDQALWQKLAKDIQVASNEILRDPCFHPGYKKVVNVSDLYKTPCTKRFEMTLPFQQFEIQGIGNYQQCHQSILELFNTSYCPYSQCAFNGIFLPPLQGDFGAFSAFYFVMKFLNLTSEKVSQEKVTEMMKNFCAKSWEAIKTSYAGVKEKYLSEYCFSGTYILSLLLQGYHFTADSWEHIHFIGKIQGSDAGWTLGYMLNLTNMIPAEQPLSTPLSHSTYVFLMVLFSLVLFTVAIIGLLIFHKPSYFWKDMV

[5] = target: T5, CD39 mutant 18 (human) (UniProt P49961); test: flow cytometry, Hek-293T cells expressing mutant 18
T5 sequence: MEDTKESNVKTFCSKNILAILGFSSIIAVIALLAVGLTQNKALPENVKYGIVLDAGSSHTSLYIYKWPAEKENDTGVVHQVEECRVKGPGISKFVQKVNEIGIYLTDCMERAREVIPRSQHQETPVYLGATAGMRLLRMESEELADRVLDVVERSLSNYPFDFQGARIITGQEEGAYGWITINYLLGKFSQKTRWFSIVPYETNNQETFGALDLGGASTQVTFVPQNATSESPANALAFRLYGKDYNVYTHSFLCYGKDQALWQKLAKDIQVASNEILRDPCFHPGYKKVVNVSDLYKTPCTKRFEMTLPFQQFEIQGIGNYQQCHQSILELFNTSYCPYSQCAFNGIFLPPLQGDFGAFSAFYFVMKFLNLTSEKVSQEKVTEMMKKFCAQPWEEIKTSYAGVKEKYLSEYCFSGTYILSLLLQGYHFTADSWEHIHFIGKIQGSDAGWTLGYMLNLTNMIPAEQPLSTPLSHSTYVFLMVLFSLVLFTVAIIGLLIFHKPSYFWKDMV

binding [1]: binds
binding [2]: binds
binding [3]: binds
binding [4]: binds
binding [5]: binds
B1: antibody I-399 (antibody, V domains shown)
VH: PVQLQQPGAEVVMPGASVKLSCKASGYTFTSFWMNWMRQRPGQGLEWIGEIDPSDFYTNSNQRFKGKATLTVDKSSSTAYMQLSSLTSEDSAVYFCARGDFGWYFDVWGTGTSVTVSS
VL: EIVLTQSPTTMTSSPGEKITFTCSASSSINSNYLHWYQQKPGFSPKLLIYRTSNLASGVPTRFSGSGSGTSYSLTIGTMEAEDVATYYCQQGSSLPRTFGGGTKLEIK

— patent US20190218308A1
